Laboratory results from article PMC6021487.
Substitutions are numbered along the chain they refer to. No constants are given. Whether binding was seen depends on the method and setting. Binding seen in cells or lysates may run through a third protein. A result given as binding can be weak or reduced; the word gives no strength. For some assays here: Sequences can lack the tags named with a protein.

Legend:
[1] = molecular target: T1, HA-PTRF (polymerase I and transcript release factor), wild type (UniProt O54724); test: co-IP; transfected 16HBE cells, 48 h after transfection; lysed in RIPA buffer (50 mM Tris-HCl pH 7.5, 135 mM NaCl, 1% NP-40, 0.5% sodium DOC, 1 mM EDTA, 10% glycerol); whole cell lysates immunoprecipitated with anti-HA or anti-Flag antibody on protein A/G-agarose beads at 4°C; immunoblot
T1 sequence: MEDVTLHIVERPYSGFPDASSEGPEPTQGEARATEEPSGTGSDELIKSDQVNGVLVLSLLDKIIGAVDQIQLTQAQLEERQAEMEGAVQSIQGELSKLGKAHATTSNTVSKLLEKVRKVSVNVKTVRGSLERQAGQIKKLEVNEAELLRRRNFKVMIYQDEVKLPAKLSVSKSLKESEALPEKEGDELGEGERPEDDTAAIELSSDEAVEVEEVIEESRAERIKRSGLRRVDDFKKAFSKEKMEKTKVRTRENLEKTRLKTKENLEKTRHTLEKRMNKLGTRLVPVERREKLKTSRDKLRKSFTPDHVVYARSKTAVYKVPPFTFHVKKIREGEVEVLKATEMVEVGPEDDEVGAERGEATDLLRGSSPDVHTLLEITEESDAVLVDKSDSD

PTRF Y158F mutant = molecular target: T2, PTRF Y158F mutant (UniProt O54724); test: as above
T2 sequence: T1 sequence with Y158F

Flag-IL-33 was tested, and the binding [1] was “binds” and the binding (PTRF Y158F mutant) was “binds”.
